{"source": "patent US5626869A", "about": "“Pharmaceutical composition containing a defined lipid system” (Pharmacia & Upjohn AB, priority 1992, dated 1997)", "origin": "cited, not measured here", "details": "oral or intraduodenal, several investigators; cited from earlier work", "note": "At least one read-out could not be matched to a standard name with certainty."}
{"substance": "heparin", "values": [{"measurement": "absorption of heparin", "result": "< 1", "unit": "%"}]}
